These are yes or no findings as the source states them, for the method shown. Binding seen in cells or lysates may run through a third protein. A result given as binding can be weak or reduced; the word gives no strength.
Assays:
[1] = target: T1, BAG5 (human (endogenous in U2OS, HeLa, SH-SY5Y cells and in human brain lysates)) (UniProt Q9UL15); assay: co-IP; lysates (1000 μg, NP40 lysis buffer) of etoposide- or H2O2-treated U2OS, HeLa and SH-SY5Y cells; anti-BAG5 overnight at 4°C, protein A-Sepharose; blots for α-synuclein and HSP70
T1 sequence: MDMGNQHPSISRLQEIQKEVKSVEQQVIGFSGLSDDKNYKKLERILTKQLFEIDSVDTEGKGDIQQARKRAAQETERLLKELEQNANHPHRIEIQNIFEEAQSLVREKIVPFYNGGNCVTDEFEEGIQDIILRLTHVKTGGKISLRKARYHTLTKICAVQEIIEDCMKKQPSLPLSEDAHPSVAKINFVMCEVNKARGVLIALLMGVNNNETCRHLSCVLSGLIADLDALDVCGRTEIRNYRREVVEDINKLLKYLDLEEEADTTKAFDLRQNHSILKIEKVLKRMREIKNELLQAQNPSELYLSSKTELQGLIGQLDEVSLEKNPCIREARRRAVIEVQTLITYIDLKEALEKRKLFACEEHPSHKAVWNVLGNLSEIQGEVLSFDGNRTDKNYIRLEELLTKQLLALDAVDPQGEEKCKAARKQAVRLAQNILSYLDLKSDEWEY

[2] = target: T1, BAG5 (human (endogenous in U2OS, HeLa, SH-SY5Y cells and in human brain lysates)); assay: co-IP; human brain lysates (200 μg, Novus Biological) of normal control and PD; anti-BAG5 overnight at 4°C, protein A-Sepharose; blots for phospho-α-synuclein (Ser129), α-synuclein and HSP70

HSP70 was tested, and the binding [1] was “binds” and the binding [2] was “binds”.

From publication PMC7655153
